Among the data in publication PMC2377097 are binding values, retold here.

Chains of the proteins cited; added tags and fusions are not shown.
UniProt P0A6Z3: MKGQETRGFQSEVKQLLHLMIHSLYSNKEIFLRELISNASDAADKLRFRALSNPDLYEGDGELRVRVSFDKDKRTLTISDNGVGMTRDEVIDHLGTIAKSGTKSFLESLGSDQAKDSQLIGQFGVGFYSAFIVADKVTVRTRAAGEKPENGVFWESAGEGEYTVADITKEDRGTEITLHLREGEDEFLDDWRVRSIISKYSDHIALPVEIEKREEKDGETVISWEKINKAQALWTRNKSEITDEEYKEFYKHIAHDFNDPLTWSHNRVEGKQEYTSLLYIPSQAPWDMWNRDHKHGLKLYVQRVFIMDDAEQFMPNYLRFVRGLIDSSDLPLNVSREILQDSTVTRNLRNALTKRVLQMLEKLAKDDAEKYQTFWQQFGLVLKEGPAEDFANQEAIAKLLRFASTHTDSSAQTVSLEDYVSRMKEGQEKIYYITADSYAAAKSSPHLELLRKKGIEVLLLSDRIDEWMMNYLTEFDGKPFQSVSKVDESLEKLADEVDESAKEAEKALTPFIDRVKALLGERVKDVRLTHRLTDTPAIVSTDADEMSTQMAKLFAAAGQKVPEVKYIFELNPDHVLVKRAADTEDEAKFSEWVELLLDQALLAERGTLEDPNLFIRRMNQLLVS

These are yes or no findings as the source states them, for the method shown. Where a sequence is shown, tags or fusion partners need not be part of it.

The assay addresses T1, Unc45b^Flag, bacteria expressed and purified (mouse) (UniProt Q8CGY6).
T1 sequence: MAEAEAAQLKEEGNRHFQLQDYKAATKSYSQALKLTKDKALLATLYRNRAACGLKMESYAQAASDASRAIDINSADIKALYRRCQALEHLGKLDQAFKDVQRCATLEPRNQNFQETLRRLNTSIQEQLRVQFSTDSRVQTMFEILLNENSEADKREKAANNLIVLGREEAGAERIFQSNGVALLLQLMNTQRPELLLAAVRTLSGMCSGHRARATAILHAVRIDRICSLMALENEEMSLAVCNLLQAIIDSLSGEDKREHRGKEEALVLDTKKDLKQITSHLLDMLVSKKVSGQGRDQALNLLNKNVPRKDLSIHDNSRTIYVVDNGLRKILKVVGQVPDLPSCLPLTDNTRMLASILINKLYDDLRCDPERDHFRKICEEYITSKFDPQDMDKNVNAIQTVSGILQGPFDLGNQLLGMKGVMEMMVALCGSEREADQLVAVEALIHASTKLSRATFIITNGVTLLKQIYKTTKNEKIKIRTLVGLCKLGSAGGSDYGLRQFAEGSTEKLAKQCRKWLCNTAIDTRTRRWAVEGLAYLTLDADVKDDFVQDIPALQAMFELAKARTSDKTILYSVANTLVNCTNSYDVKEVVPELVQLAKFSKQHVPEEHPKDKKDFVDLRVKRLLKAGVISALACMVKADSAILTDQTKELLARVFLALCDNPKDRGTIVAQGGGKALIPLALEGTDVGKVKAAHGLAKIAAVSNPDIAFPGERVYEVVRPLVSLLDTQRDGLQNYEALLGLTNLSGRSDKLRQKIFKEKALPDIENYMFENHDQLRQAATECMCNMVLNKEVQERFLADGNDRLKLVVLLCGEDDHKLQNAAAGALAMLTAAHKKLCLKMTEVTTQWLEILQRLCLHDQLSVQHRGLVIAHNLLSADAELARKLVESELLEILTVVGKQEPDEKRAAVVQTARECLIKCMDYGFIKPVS
Description: co-purification (ion-exchange chromatography); Unc45b^Flag purified to homogeneity from E. coli lysate.

For the substance “bacterial Hsp90 homologue, HtpG (from UniProt P0A6Z3 1-624)”, the binding result is given as “no binding”.
